The other results are listed elsewhere or left out.
Compound: Cc1cc(ccc1-c1ccccc1)C(=O)N1CCCN(CC1)C(=O)CCl [compound 10]
Assay: probe-labelled cysteine peptide fold change vs DMSO (competition) (log2 fold change); higher = less target engagement (more negative = stronger competition)
Details: 50 µM; THP-1; incubation time: 4 h
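Further: competitive profiling in live THP-1 cells: cysteine peptides tagged with an iodoacetamide desthiobiotin (IA-DTB) probe, intensity after compound treatment relative to DMSO-treated cells.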

The chains behind the UniProt entries cited, without tags or fusion partners. Where a name states a change or a piece, a line headed by the entry shows the natural chain unless it says otherwise.
UniProt P35611: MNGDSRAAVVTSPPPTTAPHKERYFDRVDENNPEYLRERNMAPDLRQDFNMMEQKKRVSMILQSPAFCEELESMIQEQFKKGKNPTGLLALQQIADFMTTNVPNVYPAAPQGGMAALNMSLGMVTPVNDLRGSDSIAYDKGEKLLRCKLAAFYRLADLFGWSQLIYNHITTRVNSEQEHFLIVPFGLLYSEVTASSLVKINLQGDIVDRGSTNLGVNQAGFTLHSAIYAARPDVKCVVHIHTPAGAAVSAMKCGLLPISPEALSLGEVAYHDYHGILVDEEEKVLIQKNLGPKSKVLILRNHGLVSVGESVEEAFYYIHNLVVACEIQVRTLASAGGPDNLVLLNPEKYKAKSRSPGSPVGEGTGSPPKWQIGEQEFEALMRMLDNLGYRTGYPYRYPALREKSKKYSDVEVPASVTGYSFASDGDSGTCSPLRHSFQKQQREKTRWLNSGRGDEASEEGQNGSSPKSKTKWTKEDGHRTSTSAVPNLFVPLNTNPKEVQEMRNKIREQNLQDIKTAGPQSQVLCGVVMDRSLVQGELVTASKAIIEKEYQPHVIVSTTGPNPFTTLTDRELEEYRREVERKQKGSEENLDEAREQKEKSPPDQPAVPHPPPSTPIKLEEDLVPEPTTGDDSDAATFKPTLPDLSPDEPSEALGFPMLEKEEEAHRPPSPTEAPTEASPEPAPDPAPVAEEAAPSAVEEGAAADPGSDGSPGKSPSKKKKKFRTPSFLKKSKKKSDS
UniProt O43707, whole entry, looked up: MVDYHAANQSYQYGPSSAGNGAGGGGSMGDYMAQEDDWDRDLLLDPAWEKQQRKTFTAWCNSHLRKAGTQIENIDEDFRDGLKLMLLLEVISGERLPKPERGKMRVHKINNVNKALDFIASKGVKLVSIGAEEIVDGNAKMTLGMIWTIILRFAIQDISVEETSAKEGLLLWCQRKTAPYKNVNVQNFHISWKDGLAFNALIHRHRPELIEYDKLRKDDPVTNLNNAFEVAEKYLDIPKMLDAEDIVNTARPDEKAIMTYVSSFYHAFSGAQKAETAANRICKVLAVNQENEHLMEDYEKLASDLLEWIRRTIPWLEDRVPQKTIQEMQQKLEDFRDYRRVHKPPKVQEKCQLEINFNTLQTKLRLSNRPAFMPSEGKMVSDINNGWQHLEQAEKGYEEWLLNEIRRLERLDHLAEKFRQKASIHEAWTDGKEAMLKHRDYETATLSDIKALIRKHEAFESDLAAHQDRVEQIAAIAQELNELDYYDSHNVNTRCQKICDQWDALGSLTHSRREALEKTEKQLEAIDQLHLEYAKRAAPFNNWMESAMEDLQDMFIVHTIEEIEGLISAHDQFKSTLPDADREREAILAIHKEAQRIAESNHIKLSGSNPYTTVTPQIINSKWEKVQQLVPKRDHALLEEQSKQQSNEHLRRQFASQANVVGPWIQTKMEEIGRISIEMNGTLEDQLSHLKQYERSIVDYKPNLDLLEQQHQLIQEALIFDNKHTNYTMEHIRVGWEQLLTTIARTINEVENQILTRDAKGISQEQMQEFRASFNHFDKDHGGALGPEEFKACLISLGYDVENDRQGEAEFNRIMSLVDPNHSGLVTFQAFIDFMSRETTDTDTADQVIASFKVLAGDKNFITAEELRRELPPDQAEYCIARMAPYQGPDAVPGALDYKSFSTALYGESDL
UniProt P35573: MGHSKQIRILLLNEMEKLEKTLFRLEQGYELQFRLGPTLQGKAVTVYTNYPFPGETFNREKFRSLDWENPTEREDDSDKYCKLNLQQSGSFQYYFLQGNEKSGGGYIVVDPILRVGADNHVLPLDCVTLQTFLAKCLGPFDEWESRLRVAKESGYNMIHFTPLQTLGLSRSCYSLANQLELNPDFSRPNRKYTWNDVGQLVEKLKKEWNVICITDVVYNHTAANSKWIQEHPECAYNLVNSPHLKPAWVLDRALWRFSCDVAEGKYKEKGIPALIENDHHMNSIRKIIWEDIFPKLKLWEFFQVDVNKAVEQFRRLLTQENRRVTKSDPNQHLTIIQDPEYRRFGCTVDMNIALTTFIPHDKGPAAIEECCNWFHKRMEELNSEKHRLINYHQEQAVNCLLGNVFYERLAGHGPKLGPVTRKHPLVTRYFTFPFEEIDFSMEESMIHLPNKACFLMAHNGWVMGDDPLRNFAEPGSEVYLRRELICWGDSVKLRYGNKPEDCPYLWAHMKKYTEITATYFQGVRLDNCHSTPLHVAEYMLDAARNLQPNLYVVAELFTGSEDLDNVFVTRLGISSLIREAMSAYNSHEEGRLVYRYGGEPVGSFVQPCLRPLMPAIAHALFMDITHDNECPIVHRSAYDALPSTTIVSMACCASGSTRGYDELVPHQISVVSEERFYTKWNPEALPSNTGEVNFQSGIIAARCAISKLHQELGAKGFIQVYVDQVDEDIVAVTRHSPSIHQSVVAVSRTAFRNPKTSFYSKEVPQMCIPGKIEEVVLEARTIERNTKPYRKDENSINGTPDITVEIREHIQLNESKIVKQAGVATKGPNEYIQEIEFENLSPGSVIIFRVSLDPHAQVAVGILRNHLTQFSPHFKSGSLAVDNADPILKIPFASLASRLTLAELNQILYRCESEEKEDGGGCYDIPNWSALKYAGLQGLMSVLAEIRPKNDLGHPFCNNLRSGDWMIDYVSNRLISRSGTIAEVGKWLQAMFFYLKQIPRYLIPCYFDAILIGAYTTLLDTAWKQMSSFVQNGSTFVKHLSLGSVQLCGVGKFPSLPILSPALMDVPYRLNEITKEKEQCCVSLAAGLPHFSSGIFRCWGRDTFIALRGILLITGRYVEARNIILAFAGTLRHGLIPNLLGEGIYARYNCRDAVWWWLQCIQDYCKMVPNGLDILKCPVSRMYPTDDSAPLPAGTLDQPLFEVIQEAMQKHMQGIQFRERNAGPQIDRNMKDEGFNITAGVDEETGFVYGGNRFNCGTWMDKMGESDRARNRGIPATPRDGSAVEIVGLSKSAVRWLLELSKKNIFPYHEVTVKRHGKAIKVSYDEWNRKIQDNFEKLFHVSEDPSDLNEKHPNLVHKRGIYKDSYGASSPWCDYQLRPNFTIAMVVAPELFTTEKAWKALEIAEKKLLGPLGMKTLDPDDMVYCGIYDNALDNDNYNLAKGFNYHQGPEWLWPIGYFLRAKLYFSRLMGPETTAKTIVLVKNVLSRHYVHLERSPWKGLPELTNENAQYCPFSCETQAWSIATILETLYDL
UniProt Q9Y4W6: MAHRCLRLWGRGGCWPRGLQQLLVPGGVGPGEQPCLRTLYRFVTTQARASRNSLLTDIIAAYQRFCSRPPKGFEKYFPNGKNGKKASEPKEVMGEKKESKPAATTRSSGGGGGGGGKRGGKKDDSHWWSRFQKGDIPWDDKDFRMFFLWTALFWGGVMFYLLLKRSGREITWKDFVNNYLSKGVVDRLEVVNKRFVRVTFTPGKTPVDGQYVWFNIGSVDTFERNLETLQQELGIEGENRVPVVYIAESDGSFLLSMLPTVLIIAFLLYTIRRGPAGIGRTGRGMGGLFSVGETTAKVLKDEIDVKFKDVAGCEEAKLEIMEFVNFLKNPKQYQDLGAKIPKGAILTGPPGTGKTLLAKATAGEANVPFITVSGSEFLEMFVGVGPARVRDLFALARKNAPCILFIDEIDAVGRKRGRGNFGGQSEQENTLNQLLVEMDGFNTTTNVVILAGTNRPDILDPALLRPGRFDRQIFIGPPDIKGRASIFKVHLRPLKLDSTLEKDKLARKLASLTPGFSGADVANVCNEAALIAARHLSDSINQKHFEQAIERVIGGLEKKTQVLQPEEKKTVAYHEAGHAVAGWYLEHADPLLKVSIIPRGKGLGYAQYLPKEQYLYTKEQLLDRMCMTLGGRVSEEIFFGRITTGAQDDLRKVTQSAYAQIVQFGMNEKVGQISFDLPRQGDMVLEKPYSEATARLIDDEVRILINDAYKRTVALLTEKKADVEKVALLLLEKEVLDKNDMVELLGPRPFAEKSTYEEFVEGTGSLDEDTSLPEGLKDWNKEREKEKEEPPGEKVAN
UniProt O15254: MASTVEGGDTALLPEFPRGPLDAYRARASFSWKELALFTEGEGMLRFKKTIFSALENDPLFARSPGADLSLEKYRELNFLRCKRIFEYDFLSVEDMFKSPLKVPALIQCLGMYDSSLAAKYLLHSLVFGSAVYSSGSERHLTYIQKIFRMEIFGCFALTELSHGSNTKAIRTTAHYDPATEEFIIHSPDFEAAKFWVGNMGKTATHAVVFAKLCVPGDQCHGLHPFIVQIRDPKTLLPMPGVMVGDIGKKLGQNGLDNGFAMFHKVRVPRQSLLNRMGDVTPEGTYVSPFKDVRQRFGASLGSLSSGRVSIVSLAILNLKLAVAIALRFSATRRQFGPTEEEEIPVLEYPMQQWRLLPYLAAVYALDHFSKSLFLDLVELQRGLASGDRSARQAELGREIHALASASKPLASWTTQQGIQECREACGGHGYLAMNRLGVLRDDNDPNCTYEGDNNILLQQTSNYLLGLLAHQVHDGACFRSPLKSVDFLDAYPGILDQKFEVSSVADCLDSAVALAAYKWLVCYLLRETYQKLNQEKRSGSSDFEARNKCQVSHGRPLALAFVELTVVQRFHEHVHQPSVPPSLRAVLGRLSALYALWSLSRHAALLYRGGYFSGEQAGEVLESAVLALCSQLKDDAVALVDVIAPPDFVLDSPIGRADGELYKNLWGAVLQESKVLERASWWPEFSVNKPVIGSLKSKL
UniProt P54922: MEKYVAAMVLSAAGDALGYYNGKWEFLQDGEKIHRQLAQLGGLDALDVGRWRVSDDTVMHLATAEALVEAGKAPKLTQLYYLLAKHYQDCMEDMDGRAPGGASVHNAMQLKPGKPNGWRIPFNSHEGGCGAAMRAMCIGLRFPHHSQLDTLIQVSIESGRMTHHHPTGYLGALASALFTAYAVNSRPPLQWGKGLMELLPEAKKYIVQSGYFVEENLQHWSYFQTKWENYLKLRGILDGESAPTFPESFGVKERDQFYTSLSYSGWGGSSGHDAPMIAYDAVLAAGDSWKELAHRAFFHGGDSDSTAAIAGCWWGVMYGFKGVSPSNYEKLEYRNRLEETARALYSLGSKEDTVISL
UniProt Q9BRR6: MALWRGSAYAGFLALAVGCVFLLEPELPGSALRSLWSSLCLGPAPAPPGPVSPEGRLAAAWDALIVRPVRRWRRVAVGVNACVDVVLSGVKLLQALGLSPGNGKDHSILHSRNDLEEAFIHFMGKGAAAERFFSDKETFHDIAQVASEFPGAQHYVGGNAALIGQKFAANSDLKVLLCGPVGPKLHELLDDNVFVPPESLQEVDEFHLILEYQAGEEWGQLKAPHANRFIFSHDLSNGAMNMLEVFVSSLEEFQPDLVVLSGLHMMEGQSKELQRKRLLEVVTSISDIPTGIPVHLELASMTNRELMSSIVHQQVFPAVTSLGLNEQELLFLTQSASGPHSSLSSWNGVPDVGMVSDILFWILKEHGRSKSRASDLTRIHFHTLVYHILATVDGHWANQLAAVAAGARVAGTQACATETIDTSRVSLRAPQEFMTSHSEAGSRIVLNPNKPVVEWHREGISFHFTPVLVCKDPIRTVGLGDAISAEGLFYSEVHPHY
UniProt Q9BSE5: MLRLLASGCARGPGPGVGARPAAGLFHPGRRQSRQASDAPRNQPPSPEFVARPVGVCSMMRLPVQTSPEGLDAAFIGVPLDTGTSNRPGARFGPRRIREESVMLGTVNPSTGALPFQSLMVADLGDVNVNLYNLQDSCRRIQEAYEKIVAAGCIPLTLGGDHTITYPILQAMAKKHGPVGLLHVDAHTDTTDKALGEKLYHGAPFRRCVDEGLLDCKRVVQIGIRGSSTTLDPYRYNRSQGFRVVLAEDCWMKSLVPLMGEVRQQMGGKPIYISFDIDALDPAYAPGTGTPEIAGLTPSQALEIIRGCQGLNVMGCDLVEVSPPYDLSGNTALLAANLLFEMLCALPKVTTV
UniProt Q9NR19, whole entry, looked up: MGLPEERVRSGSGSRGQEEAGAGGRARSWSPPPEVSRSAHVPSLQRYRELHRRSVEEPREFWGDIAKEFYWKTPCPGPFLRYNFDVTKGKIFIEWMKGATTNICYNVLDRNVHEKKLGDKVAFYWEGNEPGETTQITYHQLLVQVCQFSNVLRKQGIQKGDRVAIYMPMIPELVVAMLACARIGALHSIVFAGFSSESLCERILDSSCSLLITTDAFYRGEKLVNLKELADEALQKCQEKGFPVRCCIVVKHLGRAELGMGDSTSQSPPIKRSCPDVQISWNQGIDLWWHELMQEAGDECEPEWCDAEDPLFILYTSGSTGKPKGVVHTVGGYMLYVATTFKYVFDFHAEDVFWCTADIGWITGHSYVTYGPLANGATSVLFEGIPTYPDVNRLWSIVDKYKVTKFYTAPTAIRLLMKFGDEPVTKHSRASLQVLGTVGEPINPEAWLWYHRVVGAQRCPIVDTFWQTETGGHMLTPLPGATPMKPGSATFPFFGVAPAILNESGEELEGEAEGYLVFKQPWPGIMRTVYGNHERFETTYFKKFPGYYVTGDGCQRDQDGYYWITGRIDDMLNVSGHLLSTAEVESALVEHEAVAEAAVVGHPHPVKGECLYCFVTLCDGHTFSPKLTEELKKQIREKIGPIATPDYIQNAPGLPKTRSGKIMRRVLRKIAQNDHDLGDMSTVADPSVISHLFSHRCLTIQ

Row | Target | probe-labelled cysteine peptide fold change
1 | ADD1_P35611_236_CVVHIHTPAGAAVSAMK (UniProt P35611) | -0.0683
2 | ACTN4_O43707_793_ACLISLGYDVENDRQGEAEFNR (UniProt O43707) | 0.0633
3 | AGL_P35573_234_WIQEHPECAYNLVNSPHLK (UniProt P35573) | 0.149
4 | ACTR3_P61158_12_LPACVVDCGTGYTK (UniProt P61158) | -0.184
5 | ADAR_P55265_392_RNAEFLTCNIPTSNASNNMVTTEK (UniProt P55265) | -0.443
6 | AFG3L2_Q9Y4W6_525_KLASLTPGFSGADVANVCNEAALIAAR (UniProt Q9Y4W6) | -0.317
7 | ACOX3_O15254_220_LCVPGDQCHGLHPFIVQIRDPK (UniProt O15254) | -0.2
8 | ADPRH_P54922_90_HYQDCMEDMDGR (UniProt P54922) | 0.114
9 | ADAM17_P78536_630_KGKPCTVGFCDMNGK (UniProt P78536) | -0.565
10 | ACTR2_P61160_20_CGYAGSNFPEHIFPALVGR (UniProt P61160) | 0.279
11 | AGFG1_P52594_32_CFDCDQR (UniProt P52594) | -0.0176
12 | ACTR10_Q9NZ32_27_CGFAGETGPR (UniProt Q9NZ32) | 0.138
13 | ACTR3_P61158_34_LGYAGNTEPQFIIPSCIAIK (UniProt P61158) | 0.22
14 | ADPGK_Q9BRR6_415_VAGTQACATETIDTSR (UniProt Q9BRR6) | 0.176
15 | AGL_P35573_767_EVPQMCIPGK (UniProt P35573) | -0.0362
16 | AGMAT_Q9BSE5_250_VVLAEDCWMK (UniProt Q9BSE5) | -0.197
17 | ADSL_P30566_113_AAGIIHLGATSCYVGDNTDLIILR (UniProt P30566) | 0.352
18 | ACSS2_Q9NR19_246_CCIVVK (UniProt Q9NR19) | -0.0328
19 | ADAM10_O14672_607_DDKELCHVCCMKKMDPSTCASTGSVQWSR (UniProt O14672) | -0.0642
20 | ACTR2_P61160_221_LCYVGYNIEQEQK (UniProt P61160) | 0.0528
21 | AFF4_Q9UHB7_338_EMTHSWPPPLTAIHTPCK (UniProt Q9UHB7) | -0.0943
